These are yes or no findings as the source states them, for the method shown. Binding can be weak; no strength is given.
Molecular target: chitinase Cts1 (Ustilago maydis)
Assay: two-hybrid; Clontech MatchMaker III system in S. cerevisiae AH109; Gal4 AD and BD fusions, both combinations; serial dilutions on selection plates; auto-activation excluded with control plasmids

Sequences of proteins named here, by UniProt entry; tags and fusion partners are left off. A change or cut given only in a name is not applied to a line headed by its entry.
UniProt A0A0D1C3B2: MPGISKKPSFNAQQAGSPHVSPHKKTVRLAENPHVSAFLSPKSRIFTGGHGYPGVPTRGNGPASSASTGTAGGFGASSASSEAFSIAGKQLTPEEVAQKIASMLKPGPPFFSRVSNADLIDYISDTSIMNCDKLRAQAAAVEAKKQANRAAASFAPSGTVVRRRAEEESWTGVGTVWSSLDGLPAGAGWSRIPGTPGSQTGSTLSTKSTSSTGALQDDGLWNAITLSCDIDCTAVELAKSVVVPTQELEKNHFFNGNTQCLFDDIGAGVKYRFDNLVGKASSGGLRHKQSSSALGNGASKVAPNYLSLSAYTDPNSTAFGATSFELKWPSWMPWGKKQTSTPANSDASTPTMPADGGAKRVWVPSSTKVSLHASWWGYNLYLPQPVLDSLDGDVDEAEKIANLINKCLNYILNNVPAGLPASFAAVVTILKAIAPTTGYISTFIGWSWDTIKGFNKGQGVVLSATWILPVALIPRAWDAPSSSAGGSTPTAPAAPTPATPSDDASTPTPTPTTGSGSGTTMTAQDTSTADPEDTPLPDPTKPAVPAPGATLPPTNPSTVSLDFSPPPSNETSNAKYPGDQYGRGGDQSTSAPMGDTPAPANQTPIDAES

For “Jps1 (jammed in protein secretion screen 1) (from UniProt A0A0D1C3B2)”, the binding was “binds weakly”.

Reference: paper PMC7358432
